## Drug screen on melanoma cell lines: apoptosis marker

Data from the primary screen of doi:10.1371/journal.pone.0140310, rounded.

First drug in all entries: indole-3-carbinol, 4 µM, OCc1c[nH]c2ccccc12

Drugs:
GW2580 (5 µM): COc1ccc(COc2ccc(Cc3cnc(N)nc3N)cc2OC)cc1
lenalidomide (5 µM): Nc1cccc2c1CN(C1CCC(=O)NC1=O)C2=O (centres undefined)
veliparib (7 µM): C[C@]1(c2nc3c(C(N)=O)cccc3[nH]2)CCCN1
docetaxel (0.0005 µM): CC(=O)O[C@@]12CO[C@@H]1C[C@H](O)[C@@]1(C)C(=O)[C@H](O)C3=C(C)[C@@H](OC(=O)[C@H](O)[C@@H](NC(=O)OC(C)(C)C)c4ccccc4)C[C@@](O)([C@@H](OC(=O)c4ccccc4)[C@H]21)C3(C)C
dasatinib (0.02 µM): Cc1nc(Nc2ncc(C(=O)Nc3c(C)cccc3Cl)s2)cc(N2CCN(CCO)CC2)n1
fingolimod (10 µM): CCCCCCCCc1ccc(CCC(N)(CO)CO)cc1
FK866 (0.05 µM): O=C(/C=C/c1cccnc1)NCCCCC1CCN(C(=O)c2ccccc2)CC1
KU-0063794 (0.1 µM): COc1ccc(-c2ccc3c(N4CCOCC4)nc(N4C[C@@H](C)O[C@@H](C)C4)nc3n2)cc1CO
STA-4783 (0.03 µM): CN(NC(=O)CC(=O)NN(C)C(=S)c1ccccc1)C(=S)c1ccccc1
A-769662 (10 µM): N#Cc1c(O)c2c(-c3ccc(-c4ccccc4O)cc3)csc2[nH]c1=O
nutlin-3 (0.5 µM): COc1ccc(C2=N[C@@H](c3ccc(Cl)cc3)[C@@H](c3ccc(Cl)cc3)N2C(=O)N2CCNC(=O)C2)c(OC(C)C)c1
nilutamide (5 µM): CC1(C)NC(=O)N(c2ccc([N+](=O)[O-])c(C(F)(F)F)c2)C1=O
enzastaurin (4 µM): Cn1cc(C2=C(c3cn(C4CCN(Cc5ccccn5)CC4)c4ccccc34)C(=O)NC2=O)c2ccccc21
MK-1775 (0.1 µM): C=CCn1c(=O)c2cnc(Nc3ccc(N4CCN(C)CC4)cc3)nc2n1-c1cccc(C(C)(C)O)n1
pazopanib (2 µM): Cc1ccc(Nc2nccc(N(C)c3ccc4c(C)n(C)nc4c3)n2)cc1S(N)(=O)=O
tipifarnib (0.05 µM): Cn1cncc1[C@@](N)(c1ccc(Cl)cc1)c1ccc2c(c1)c(-c1cccc(Cl)c1)cc(=O)n2C
SNS-032 (0.05 µM): CC(C)(C)c1cnc(CSc2cnc(NC(=O)C3CCNCC3)s2)o1
SNS-314 (0.004 µM): O=C(Nc1cccc(Cl)c1)Nc1ncc(CCNc2ncnc3ccsc23)s1
CP-690550 (5 µM): C[C@@H]1CCN(C(=O)CC#N)C[C@@H]1N(C)c1ncnc2[nH]ccc12
YM155 (0.002 µM): COCC[n+]1c2c(n(Cc3cnccn3)c1C)C(=O)c1ccccc1C2=O
TCS401 (8.33 µM): O=C(O)C(=O)Nc1sc2c(c1C(=O)O)CCNC2
everolimus (0.1 µM): CO[C@H]1C[C@@H]2CC[C@@H](C)[C@@](O)(O2)C(=O)C(=O)N2CCCC[C@H]2C(=O)O[C@H]([C@H](C)C[C@@H]2CC[C@@H](OCCO)[C@H](OC)C2)CC(=O)[C@H](C)/C=C(\C)[C@@H](O)[C@@H](OC)C(=O)[C@H](C)C[C@H](C)/C=C/C=C/C=C/1C
crizotinib (1 µM): C[C@@H](Oc1cc(-c2cnn(C3CCNCC3)c2)cnc1N)c1c(Cl)ccc(F)c1Cl
FH535 (5 µM): Cc1cc([N+](=O)[O-])ccc1NS(=O)(=O)c1cc(Cl)ccc1Cl
GW9662 (10 µM): O=C(Nc1ccccc1)c1cc([N+](=O)[O-])ccc1Cl
CHIR-265 (0.4 µM): Cn1c(Nc2ccc(C(F)(F)F)cc2)nc2cc(Oc3ccnc(-c4ncc(C(F)(F)F)[nH]4)c3)ccc21

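Human melanoma cell lines in 1,536-well plates were treated with a pair of drugs for 72 h, then fixed, stained and imaged. Values are the share of nuclei positive for cleaved PARP as a percentage of the same share in the DMSO control: 100 is the control level, higher means more apoptosis. Every drug was used at one fixed concentration, the higher of two screened. The file gives one value for each pair and line, without errors, so small differences may be noise. The marker varies much from line to line, for technical or biological reasons.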 Only some of the drugs and lines screened are listed, without regard to their results. A dash means that no value is listed here.

Second drug,COLO 829,501mel,WM3526,COLO 792,MeWo,A375,SK-MEL-28,WM3619,RPMI-7951,LB2518-MEL
CHIR-265,139,-,551,1290,97.8,536,145,153,186,155
lenalidomide,249,-,93.6,49.4,91.3,82.7,115,97.1,81.3,149
FH535,129,63.9,163,199,205,163,367,109,52.8,66.6
CP-690550,48.6,-,84.6,171,114,-,39.0,100,181,91.0
veliparib,99.4,-,41.5,95.8,47.8,140,82.8,98.2,34.5,139
nutlin-3,146,-,38.8,123,85.1,69.5,236,112,75.9,135
fingolimod,398,-,4060,14000,1060,389,11600,1130,1010,17100
tipifarnib,155,-,208,214,101,-,105,109,280,250
crizotinib,113,-,296,130,177,89.2,106,88.5,94.6,164
SNS-032,81.5,-,245,315,120,-,341,234,264,56.4
pazopanib,112,-,110,81.4,127,101,18.3,114,57.7,187
dasatinib,435,-,171,66.4,112,23.7,81.1,180,371,75.4
everolimus,45.9,-,179,145,100,56.3,101,156,77.6,163
YM155,199,-,594,103,137,39.0,352,110,109,585
TCS401,50.6,138,60.2,90.3,58.7,35.1,152,69.7,43.1,118
A-769662,69.3,56.4,49.5,136,95.1,107,78.1,90.5,46.0,100
docetaxel,215,-,938,892,722,206,1360,150,290,337
KU-0063794,113,73.8,118,120,79.9,88.6,46.4,95.9,105,103
FK866,793,-,126,504,117,14.7,153,117,87.2,469
nilutamide,134,-,67.6,138,92.0,-,189,89.9,52.0,186
enzastaurin,58.4,-,107,77.5,79.9,51.6,169,120,74.3,108
STA-4783,201,-,55.0,579,597,-,242,1450,467,677
GW2580,84.4,67.6,106,49.3,81.5,160,51.7,90.2,100,133
MK-1775,73.1,-,248,81.1,97.7,-,802,153,36.5,272
SNS-314,97.5,-,32.5,66.8,387,-,84.4,104,268,113
GW9662,155,196,84.0,111,95.5,21.9,133,189,110,114

The first 2 entries again:

| Second drug | COLO 829 | 501mel | WM3526 | COLO 792 | MeWo | A375 | SK-MEL-28 | WM3619 | RPMI-7951 | LB2518-MEL |
|---|---|---|---|---|---|---|---|---|---|---|
| CHIR-265 | 139 | - | 551 | 1290 | 97.8 | 536 | 145 | 153 | 186 | 155 |
| lenalidomide | 249 | - | 93.6 | 49.4 | 91.3 | 82.7 | 115 | 97.1 | 81.3 | 149 |